Laboratory results from patent US20230242615A1.
These are yes or no findings as the source states them, for the method shown. Some entries that bind do so weakly or less than the wild type.

Sequences of proteins named here, by UniProt entry; tags and fusion partners are left off. A change or cut given only in a name is not applied to a line headed by its entry.
UniProt P24394: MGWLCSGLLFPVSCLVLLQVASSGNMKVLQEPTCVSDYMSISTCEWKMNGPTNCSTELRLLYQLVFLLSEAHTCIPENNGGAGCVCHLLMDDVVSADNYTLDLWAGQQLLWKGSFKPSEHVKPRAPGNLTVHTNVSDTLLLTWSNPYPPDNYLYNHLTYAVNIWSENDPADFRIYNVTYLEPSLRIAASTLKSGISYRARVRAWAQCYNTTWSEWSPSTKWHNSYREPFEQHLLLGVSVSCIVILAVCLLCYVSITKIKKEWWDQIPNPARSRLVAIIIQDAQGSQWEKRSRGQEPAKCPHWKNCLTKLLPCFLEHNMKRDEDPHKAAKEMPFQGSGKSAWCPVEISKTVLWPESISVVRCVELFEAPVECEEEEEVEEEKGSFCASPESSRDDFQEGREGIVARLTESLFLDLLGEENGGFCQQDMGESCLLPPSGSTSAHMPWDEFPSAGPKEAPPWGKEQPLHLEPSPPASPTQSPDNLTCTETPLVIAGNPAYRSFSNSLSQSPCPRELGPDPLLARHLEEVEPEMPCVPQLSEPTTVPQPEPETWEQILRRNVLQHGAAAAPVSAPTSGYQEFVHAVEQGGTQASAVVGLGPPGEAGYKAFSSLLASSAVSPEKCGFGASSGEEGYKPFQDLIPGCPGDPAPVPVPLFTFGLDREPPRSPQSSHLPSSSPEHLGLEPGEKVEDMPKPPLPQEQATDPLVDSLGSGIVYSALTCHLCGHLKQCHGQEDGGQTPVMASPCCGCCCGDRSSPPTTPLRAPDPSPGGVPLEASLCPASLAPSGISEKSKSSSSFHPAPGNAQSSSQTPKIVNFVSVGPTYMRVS
UniProt P78552: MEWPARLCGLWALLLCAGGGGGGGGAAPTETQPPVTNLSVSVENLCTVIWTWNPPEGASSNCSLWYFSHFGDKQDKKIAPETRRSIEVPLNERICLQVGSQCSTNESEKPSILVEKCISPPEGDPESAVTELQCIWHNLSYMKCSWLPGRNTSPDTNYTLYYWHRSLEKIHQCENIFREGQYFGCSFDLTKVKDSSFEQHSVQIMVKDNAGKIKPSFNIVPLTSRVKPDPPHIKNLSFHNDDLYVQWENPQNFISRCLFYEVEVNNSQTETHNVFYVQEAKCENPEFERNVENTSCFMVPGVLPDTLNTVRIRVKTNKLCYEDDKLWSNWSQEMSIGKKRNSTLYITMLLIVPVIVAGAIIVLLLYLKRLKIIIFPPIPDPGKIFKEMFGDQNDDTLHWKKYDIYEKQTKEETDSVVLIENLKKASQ
UniProt P35225: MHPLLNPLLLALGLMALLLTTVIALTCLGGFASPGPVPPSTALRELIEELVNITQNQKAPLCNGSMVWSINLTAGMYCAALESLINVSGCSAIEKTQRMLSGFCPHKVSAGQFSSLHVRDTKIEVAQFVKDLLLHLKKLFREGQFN

Columns and labels:
Experiment in all cases: ELISA, fusion polypeptide coated, IL13 in a gradient mixed with fixed IL4 (1 ng/ml) as competitor, detection with HRP anti-IL13 antibody; signal as a ratio to IL13 without IL4
[1] = biological target: IL4Rα-IL13Rα2-Fc (Homo sapiens (Human)) (UniProt P24394)
[2] = biological target: IL13Rα1-IL4Rα-Fc (Homo sapiens (Human)) (UniProt P78552)
[3] = biological target: IL4Rα-IL13Rα1-Fc (Homo sapiens (Human)) (UniProt P24394)

Measured: binding

Interleukin 13 (from UniProt P35225 36-146) (ligand)
binds: [1] | [2] | [3]
